In PubChem BioAssay AID248 (DTP/NCI, 2004):
The list does not hold the whole screen: it is rich in T/C values a quarter to a half above the control, in often repeated tests (any T/C) and in doses without a T/C. Other doses and runs of a compound stand elsewhere. T/C is the treated group as % of the vehicle group. Some entries give survivors of the animals treated and no T/C: the source holds a T/C of zero for them, seemingly a mark for toxic or unscored doses. Some doses without a T/C left all or most animals alive at the check, yet need not have been tolerated: the source hardly ever lists a survival T/C far under the control, and the zero likely stands for such cases as well. Counts of survivors are from the toxicity check (mostly the fifth day) where no day follows; animals may have died later. Schedule codes are those of the source, taken here to give the interval after Q, in days (D) or hours (H), and the number of doses after X. Some doses were run more than once; the values are given in rising order. Some schedules carry Z or #; the key to these is not given. For survival time, this PubChem deposit counts one and a half times the control or more as active, and values a quarter to a half above the control carry no call in these data; other NCI protocols may use other cut-offs. Counts like (3×) stand for listed records that agree. Some T/C values are followed by the survivors on the day toxicity was checked, most often the fifth; where none is given, no animal had died by that day.

Tested on: L1210 leukemia ip in BDF1 mice, survival T/C
Test: NCI In Vivo Anticancer Drug Screen. Data for tumor model L1210 Leukemia (intraperitoneal) in B6D2F1 (BDF1) mice
Conditions: T/C endpoint: mean survival time, higher T/C = longer survival
[1] = dose: 1.56 mg/kg/injection, schedule: Q04DX002 (ip), vehicle: other
[2] = dose: 200.0 mg/kg/injection, schedule: Q04DX003 (ip), vehicle: Klucel (hydroxypropylcellulose) (HPC)
[3] = dose: 400.0 mg/kg/injection, schedule: Q04DX003 (ip), vehicle: Klucel (hydroxypropylcellulose) (HPC)
[4] = dose: 200.0 mg/kg/injection, schedule: Q01DX009 (ip), vehicle: saline with Tween-80
[5] = dose: 400.0 mg/kg/injection, schedule: Q01DX009 (ip), vehicle: saline with Tween-80
[6] = dose: 400.0 mg/kg/injection, schedule: Q04DX003 (ip), vehicle: saline with Tween-80
[7] = dose: 400.0 mg/kg/injection, schedule: Q01DX001 (ip), vehicle: saline
[8] = dose: 100.0 mg/kg/injection, schedule: Q04DX003 (ip), vehicle: saline with Tween-80
[9] = dose: 200.0 mg/kg/injection, schedule: Q04DX003 (ip), vehicle: saline with Tween-80
[10] = dose: 300.0 mg/kg/injection, schedule: Q01DX001 (ip), vehicle: other

CC1(N=C(N)CSSCC(N)=NC2(C)CCC(C(C)(C)C)CC2)CCC(C(C)(C)C)CC1 (stereo not drawn)
T/C (dose: 1.56 mg/kg/injection, schedule: Q01DX009 (ip), vehicle: carboxymethylcellulose (CMC)): 126 % of control [4 of 6 alive]
T/C [1]: 101 % of control (2×)
survivor count [1]: 1 of 3 and 2 of 6
T/C (dose: 3.12 mg/kg/injection, schedule: Q04DX002 (ip), vehicle: other): 90 and 93 % of control (3×)
survivor count (dose: 6.25 mg/kg/injection, schedule: Q01DX009 (ip), vehicle: other): 3 of 6
T/C (dose: 6.25 mg/kg/injection, schedule: Q04DX002 (ip), vehicle: other): 90, 93, 98, 118, 128 % of control
survivor count (dose: 8.0 mg/kg/injection, schedule: Q01DX001 (ip), vehicle: other): 0 of 6
survivor count (dose: 12.5 mg/kg/injection, schedule: Q01DX009 (ip), vehicle: other): 3 of 6
survivor count (dose: 12.5 mg/kg/injection, schedule: Q04DX002 (ip), vehicle: other): 1 of 3
survivor count (dose: 16.0 mg/kg/injection, schedule: Q01DX001 (ip), vehicle: other): 0 of 6
survivor count (dose: 20.0 mg/kg/injection, schedule: Q04DX003 (ip), vehicle: other): 0 of 6
survivor count (dose: 25.0 mg/kg/injection, schedule: Q01DX009 (ip), vehicle: other): 0 of 3 and 0 of 6
survivor count (dose: 25.0 mg/kg/injection, schedule: Q04DX002 (ip), vehicle: other): 0 of 3
survivor count (dose: 32.0 mg/kg/injection, schedule: Q01DX001 (ip), vehicle: other): 0 of 6
survivor count (dose: 40.0 mg/kg/injection, schedule: Q04DX003 (ip), vehicle: other): 0 of 6
survivor count (dose: 50.0 mg/kg/injection, schedule: Q04DX002 (ip), vehicle: carboxymethylcellulose (CMC)): 0 of 3 and 3 of 6
survivor count (dose: 100.0 mg/kg/injection, schedule: Q04DX002 (ip), vehicle: carboxymethylcellulose (CMC)): 0 of 3 and 0 of 6
survivor count (dose: 200.0 mg/kg/injection, schedule: Q04DX002 (ip), vehicle: carboxymethylcellulose (CMC)): 0 of 3 and 1 of 6
survivor count (dose: 400.0 mg/kg/injection, schedule: Q04DX002 (ip), vehicle: carboxymethylcellulose (CMC)): 0 of 3 and 0 of 6

CC/C=C(\C)C1(CCC)C(N)=NC(=O)N=C1N
survivor count (dose: 300.0 mg/kg/injection, schedule: Q01DX001 (ip), vehicle: carboxymethylcellulose (CMC)): 0 of 6

Cc1ccc(C2=NN(c3ccccc3)C(c3ccccc3)C2NC2CCCCC2)cc1 (stereo not drawn)
survivor count (dose: 200.0 mg/kg/injection, schedule: Q01DX009 (ip), vehicle: acetone): 6 of 6

Oc1c(I)cc(I)c2cccnc12
survivor count (dose: 400.0 mg/kg/injection, schedule: Q01DX001 (ip), vehicle: Klucel (hydroxypropylcellulose) (HPC)): 0 of 6

CCOCC(=O)C(C#N)c1ccc(Cl)c(Cl)c1 (stereo not drawn)
survivor count (dose: 200.0 mg/kg/injection, schedule: Q01DX001 (ip), vehicle: carboxymethylcellulose (CMC)): 0 of 4
survivor count (dose: 400.0 mg/kg/injection, schedule: Q01DX001 (ip), vehicle: carboxymethylcellulose (CMC)): 0 of 4

CN=C(N)c1ccc(N=C(N)c2ccc(-c3ccc(C(N)=Nc4ccc(C(N)=NC)cc4)cc3)cc2)cc1
T/C (dose: 9.0 mg/kg/injection, schedule: Q01DX Z (ip), vehicle: carboxymethylcellulose (CMC)): 143 % of control
survivor count (dose: 400.0 mg/kg/injection, schedule: Q01DX Z (oral), vehicle: water): 0 of 6

O=C(Nc1ccc(C2=NCCN2)cc1)c1c(F)c(F)c(C(=O)Nc2ccc(C3=NCCN3)cc2)c(F)c1F
T/C (dose: 15.0 mg/kg/injection, schedule: Q01DX015 (ip), vehicle: methylcellulose (MC)): 143 % of control
survivor count (dose: 75.0 mg/kg/injection, schedule: Q01DX015 (ip), vehicle: methylcellulose (MC)): 0 of 6
survivor count (dose: 150.0 mg/kg/injection, schedule: Q01DX015 (ip), vehicle: methylcellulose (MC)): 0 of 6
survivor count (dose: 300.0 mg/kg/injection, schedule: Q01DX015 (ip), vehicle: methylcellulose (MC)): 0 of 6

NC1=NCc2ccccc21
survivor count (dose: 100.0 mg/kg/injection, schedule: Q04DX002 (ip), vehicle: saline): 1 of 3
survivor count (dose: 200.0 mg/kg/injection, schedule: Q04DX002 (ip), vehicle: saline): 0 of 3
survivor count (dose: 400.0 mg/kg/injection, schedule: Q04DX002 (ip), vehicle: saline): 0 of 3

CC(=O)C1CCCC(=O)/C=C/C(=O)O1 (stereo not drawn)
survivor count (dose: 400.0 mg/kg/injection, schedule: Q04DX002 (ip), vehicle: Klucel (hydroxypropylcellulose) (HPC)): 0 of 3

O=S(=O)(F)c1cc(Cl)c(S)cc1Cl
survivor count [2]: 0 of 6
survivor count [3]: 0 of 6

Cc1ccc(COC(=O)Nc2ccc(C)c(NC(=O)OCc3ccc(C)cc3)c2)cc1
survivor count [4]: 6 of 6

COc1ccc(S(=O)(=O)F)cc1C(=O)O
survivor count [5]: 3 of 3

COC(=O)C(F)C(Br)C(=O)OC (stereo not drawn)
survivor count (dose: 100.0 mg/kg/injection, schedule: Q01DX009 (ip), vehicle: saline with Tween-80): 5 of 10

CC1(C)C=Cc2ccccc21
survivor count [6]: 4 of 6

NNC(=O)COc1ccccc1
survivor count (dose: 200.0 mg/kg/injection, schedule: Q01DX001 (ip), vehicle: saline): 1 of 6
survivor count [7]: 0 of 6

COc1ccc(C(CC(=O)c2ccccc2)CC(=O)c2ccccc2)cc1
survivor count [8]: 5 of 6
survivor count [9]: 5 of 6

CCC(C)N=Cc1ccccc1O.CCC(C)N=Cc1ccccc1O.[Cu] (stereo not drawn)
survivor count (dose: 75.0 mg/kg/injection, schedule: Q01DX001 (ip), vehicle: other): 1 of 6
survivor count (dose: 150.0 mg/kg/injection, schedule: Q01DX001 (ip), vehicle: other): 1 of 6
survivor count [10]: 0 of 6

CC(C)CC(CC(C)C)NCC(C)OC(=O)c1ccc(N(C)C)cc1 (stereo not drawn)
survivor count [10]: 0 of 5

O=C1Nc2ccccc2C12Nc1cccnc1N2 (stereo not drawn)
survivor count (dose: 400.0 mg/kg/injection, schedule: Q01DX001 (ip), vehicle: saline with Tween-80): 6 of 6

N#CSCSC#N
survivor count (dose: 12.5 mg/kg/injection, schedule: Q04DX003 (ip), vehicle: saline with Tween-80): 4 of 6
survivor count (dose: 25.0 mg/kg/injection, schedule: Q04DX003 (ip), vehicle: saline with Tween-80): 0 of 6
survivor count (dose: 50.0 mg/kg/injection, schedule: Q04DX003 (ip), vehicle: saline with Tween-80): 0 of 6
survivor count [8]: 0 of 6
survivor count [9]: 0 of 6
survivor count [6]: 0 of 6

Cc1c(-c2ccccc2)sc(/N=C/c2cc(Br)cc(Br)c2O)c1C#N
survivor count [5]: 3 of 3

CCCC[n+]1[nH]oc(=O)c1C(=O)[O-]
survivor count [2]: 2 of 6
survivor count [3]: 0 of 6

CC1(C)C2CC=C(CCOC(=O)COc3cc(Cl)c(Cl)cc3Cl)C1C2 (stereo not drawn)
survivor count (dose: 500.0 mg/kg/injection, schedule: Q01DX Z (ip), vehicle: other): 0 of 6

NC1C2C(CC(=O)O)OCC=C3CN4CCC1(C(=O)C(=O)O)C4CC32 (stereo not drawn)
survivor count (dose: 8.0 mg/kg/injection, schedule: Q01DX001 (ip), vehicle: saline): 0 of 6

CCCCCCCCCC(C)NC(=O)CCl (stereo not drawn)
survivor count (dose: 100.0 mg/kg/injection, schedule: Q01DX009 (ip), vehicle: Klucel (hydroxypropylcellulose) (HPC)): 6 of 6
survivor count (dose: 200.0 mg/kg/injection, schedule: Q01DX009 (ip), vehicle: Klucel (hydroxypropylcellulose) (HPC)): 6 of 6
survivor count (dose: 400.0 mg/kg/injection, schedule: Q01DX009 (ip), vehicle: Klucel (hydroxypropylcellulose) (HPC)): 1 of 6

C=CCc1ccccc1NC(=O)NCCCl
survivor count [3]: 3 of 6

Cc1cc(NS(=O)(=O)c2ccc(N=Nc3c(N)[nH]c(=S)[nH]c3=O)cc2)nc(C)n1
survivor count [7]: 2 of 6

CCOc1ccc(/C=N/NC(C)=O)cc1OC
survivor count [4]: 2 of 3

N#C/C=C/C#N
survivor count [9]: 0 of 6
survivor count [6]: 0 of 6
